Reference: the supplement of paper PMC7238544
Structures can show the parent of a compound that is named as a salt. ± gives the standard deviation of the averaged measurements. This is one part of the list. The data scatter; read single values as rough.

These compounds were tested on hAMSC donor 1 (assay: transfection efficiency (EGFP+ cells / Hoechst count) fold change vs vehicle control (ratio); hAMSC are human adipose-derived mesenchymal stem cells given an EGFP-luciferase plasmid by lipofection; higher = enhanced transfection). Settings: priming compound concentration 1.7 µM.

Structure (SMILES) | transfection efficiency
COC(=O)N1CCN(C(=O)Cc2ccc(Cl)c(Cl)c2)C(CN2CCCC2)C1 (configuration not stated) | 1.55 ± 0.6
c1ccc(Cn2ccnc2)cc1 [Benzylimidazole] | 1 ± 0.26
O=C1CN=C(c2ccccc2)c2cc([N+](=O)[O-])ccc2N1 [Nitrazepam] | 1.12 ± 0.13
C[C@]12CC[C@H](O)CC1=CC[C@@H]1[C@@H]2CC[C@]2(C)C(=O)CC[C@@H]12 [Dehydroepiandrosterone] | 0.814 ± 0.058
O=C1CC[C@@]2(O)[C@H]3Cc4ccc(O)c5c4[C@@]2(CCN3CC2CC2)[C@H]1O5 [Naltrexone hydrochloride] | 1.15 ± 0.35
N=C(NCc1ccc(Cl)cc1)SCCCc1c[nH]cn1 [Clobenpropit] | 1.32 ± 0.13
C=C(C)[C@@H]1[C@H]2OC(=O)[C@@H]1[C@]1(O)C[C@H]3O[C@]34C(=O)O[C@H]2[C@]14C.CC(C)(O)[C@@H]1[C@H]2OC(=O)[C@@H]1[C@]1(O)C[C@H]3O[C@]34C(=O)O[C@H]2[C@]14C [Picrotin - Picrotoxinin] | 0.978 ± 0.16
C[C@]12Cc3c[nH]nc3C[C@@H]1CC[C@@H]1[C@@H]2CC[C@@]2(C)[C@H]1CC[C@]2(C)O [Stanozolol] | 1.31 ± 0.16
C[N+]1(C)CCCC(OC(=O)C(O)(c2ccccc2)c2ccccc2)C1 (configuration not stated) [Mepenzolate bromide] | 1.21 ± 0.18
CN[C@@H]1C[C@@H](c2ccc(Cl)c(Cl)c2)c2ccccc21 [Indatraline hydrochloride] | 0.91 ± 0.088
C#CCN(C)[C@H](C)Cc1ccccc1 [Selegiline hydrochloride] | 0.83 ± 0.2
C[C@]12CC[C@H]3[C@@H](CCC4=CC(=O)CC[C@@]43C)[C@@H]1CC[C@@H]2O [Testosterone] | 0.976 ± 0.13

2 entries from above, with tabs:
Structure (SMILES)	transfection efficiency
CN[C@@H]1C[C@@H](c2ccc(Cl)c(Cl)c2)c2ccccc21 [Indatraline hydrochloride]	0.91 ± 0.088
C#CCN(C)[C@H](C)Cc1ccccc1 [Selegiline hydrochloride]	0.83 ± 0.2
